Assay results: US20130156786A1
Results are given in words; binding and its absence hold for the method and conditions named. Some binding calls cover weakened binding; strength is not graded here. For some assays here: Sequences can lack the tags named with a protein.

Protein sequences, listed by entry. Tags and fused reporters are not part of them. Lines headed by an entry give the natural chain unless they say otherwise; changes in a name come on top.
UniProt P17301: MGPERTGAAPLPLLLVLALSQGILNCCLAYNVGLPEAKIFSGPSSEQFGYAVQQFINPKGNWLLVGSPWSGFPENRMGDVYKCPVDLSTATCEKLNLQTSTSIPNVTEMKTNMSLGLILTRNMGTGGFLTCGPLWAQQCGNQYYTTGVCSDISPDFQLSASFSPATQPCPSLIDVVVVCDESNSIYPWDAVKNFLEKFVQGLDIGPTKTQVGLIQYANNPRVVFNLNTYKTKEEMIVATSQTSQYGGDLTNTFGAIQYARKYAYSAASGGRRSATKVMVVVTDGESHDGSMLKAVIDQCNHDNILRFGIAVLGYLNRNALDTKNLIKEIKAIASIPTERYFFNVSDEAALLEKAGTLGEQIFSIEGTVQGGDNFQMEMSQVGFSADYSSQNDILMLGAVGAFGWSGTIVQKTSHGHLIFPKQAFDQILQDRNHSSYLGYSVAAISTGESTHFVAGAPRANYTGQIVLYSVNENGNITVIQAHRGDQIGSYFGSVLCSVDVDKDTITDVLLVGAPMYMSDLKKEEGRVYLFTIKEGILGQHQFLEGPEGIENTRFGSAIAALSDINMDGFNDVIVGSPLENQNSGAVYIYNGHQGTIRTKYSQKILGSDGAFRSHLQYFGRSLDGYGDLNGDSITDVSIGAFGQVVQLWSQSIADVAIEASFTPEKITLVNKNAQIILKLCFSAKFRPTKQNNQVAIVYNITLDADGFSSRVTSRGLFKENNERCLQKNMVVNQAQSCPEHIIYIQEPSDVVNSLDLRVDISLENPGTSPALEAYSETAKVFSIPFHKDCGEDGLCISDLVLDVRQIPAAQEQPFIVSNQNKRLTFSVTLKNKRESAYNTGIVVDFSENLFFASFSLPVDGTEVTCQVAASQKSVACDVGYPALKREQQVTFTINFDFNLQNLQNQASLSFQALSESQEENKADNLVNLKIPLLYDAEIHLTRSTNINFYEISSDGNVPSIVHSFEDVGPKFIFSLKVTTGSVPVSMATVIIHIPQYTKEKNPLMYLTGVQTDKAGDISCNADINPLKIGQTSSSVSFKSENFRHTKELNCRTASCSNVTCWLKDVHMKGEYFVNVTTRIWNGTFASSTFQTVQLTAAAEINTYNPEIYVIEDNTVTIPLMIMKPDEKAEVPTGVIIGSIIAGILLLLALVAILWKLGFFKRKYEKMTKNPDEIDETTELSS

Experiments:
[1] = molecular target: human integrin α2 I domain, recombinantly expressed in E. coli (human) (UniProt P17301); test: SPR Biacore 3000 (Example 7)
[2] = molecular target: human integrin α2 I domain, recombinantly expressed in E. coli (human) (UniProt P17301); test: Biacore, antibody captured by anti-human Fc antibody, integrin α2 I domain as analyte
[3] = molecular target: human integrin α2 I domain, recombinantly expressed in E. coli (human) (UniProt P17301); test: Biacore, Fab immobilised on a CM5 chip by amine coupling, integrin I domain captured by the Fab
[4] = molecular target: human integrin α2 I domain, recombinantly expressed in E. coli (human) (UniProt P17301); test: SPR Biacore, I domain bound to captured TMC2206
[5] = molecular target: human integrin α2 I domain, recombinantly expressed in E. coli (human) (UniProt P17301); test: Biacore, non-humanized Fab injected over integrin I domain pre-bound by captured TMC2206
[6] = molecular target: human integrin α2 I domain, recombinantly expressed in E. coli (human) (UniProt P17301); test: SPR Biacore 3000
[7] = molecular target: human integrin α2 I domain, recombinantly expressed in E. coli (human) (UniProt P17301); test: SPR Biacore, I domain bound to TMC2206 captured on anti-human Fc
[8] = molecular target: human integrin α2 I domain, recombinantly expressed in E. coli (human) (UniProt P17301); test: SPR Biacore 3000, antibody captured by anti-human Fc, I domain as analyte
[9] = molecular target: human integrin α2 I domain, recombinantly expressed in E. coli (human) (UniProt P17301); test: Biacore, TMC2206 injected over integrin I domain pre-bound by the immobilised non-humanized Fab
[10] = molecular target: human integrin α2 I domain, recombinantly expressed in E. coli (human) (UniProt P17301); test: SPR Biacore, I domain captured on immobilised non-humanized Fab
[11] = molecular target: human integrin α2 I domain, recombinantly expressed in E. coli (human) (UniProt P17301); test: Biacore, TMC2206 captured on anti-human Fc antibody (MAB 1302), integrin I domain injected

| Binder | binding [1] | binding [2] | binding [8] | further results |
| --- | --- | --- | --- | --- |
| humanized anti-α2-integrin mAb LC4/HC5 (antibody, IgG4, V domains shown) VH: QVQLHQPGAELVKPGASVKLSCKASGYTFTSYWMNWVKQRPGRGLEWIGRIDPSESETHYNQKFKDKATLTVDKSSSTAYIQLSSLTSEDSAVYYCAKVGRGYFDYWGQGTTLTVVS VL: NIVLTQSPSSLSVSVGQRATISCRASESVESYGQSFIYWYQQKPGQAPKLLIYLASNLASGVPARFSGSGSRTDFTLTIDPVQAEDAATYYCQQNNEDPYTFGGGTKLEIK | binds | binds |  |  |
| humanized anti-α2-integrin mAb LC4/HC6 (antibody, IgG4, V domains shown) VH: QVQLHQPGAELVKPGASVKLSCKASGYTFTSYWMNWVKQRPGRGLEWIGRIDPSESETHYNQKFKDKATLTVDKSSSTAYIQLSSLTSEDSAKYYCAKVGRGYFDYWGQGTTLTVVS VL: NIVLTQSPSSLSVSVGQRATISCRASESVESYGQSFIYWYQQKPGQAPKLLIYLASNLASGVPARFSGSGSRTDFTLTIDPVQAEDAATYYCQQNNEDPYTFGGGTKLEIK | binds | binds |  |  |
| chimeric anti α2-integrin-Fab (6xHis tagged CH1 of human IGHG1) (Fab, V domains shown) VH: QVQLHQPGAELVKPGAPVKLSCKASGYTFTSYWMNWVKQRPGRGLEWIGRIDPSDSETHYNQKFKDKATLTVDKSSSTAYIQLSSLTSEDSAVYYCAKVGRGYFDYWGQGTTLTVSS VL: NIVLTQSPASLAVSLGQRATISCRASESVESYGNSFIYWYQQKPGQAPKLLIYLASNLASGVPARFSGSGSRTDFTLTIDPVEADDAATYYCQQNNEDPYTFGGGTKLEIKR |  |  |  | binding [3]: binds; binding [4]: binds; binding [5]: binds; binding [6]: binds; binding [7]: binds |
| humanized anti-α2-integrin mAb LC2/HC2 (antibody, IgG4, V domains shown) VH: QVQLHQPGAELVKPGAPVKLSCKASGYTFTSYWMNWVKQRPGQGLEWIGRIDPSESETHYNQKFKDRATLTVDKSSSTAYIQLSSLTSEDSAVYYCAKVGRGYFDYWGQGTTLTVVS VL: NIVLTQSPSSLAVSVGQRATISCRASESVESYGQSFIYWYQQKPGKAPKLLIYLASNLASGVPARFSGSGSRTDFTLTIDPVQADDAATYYCQQNNEDPYTFGGGTKLEIK | binds | binds |  |  |
| humanized anti-α2-integrin mAb LC1/HC1 (antibody, IgG4, V domains shown) VH: QVQLHQPGAELVKPGAPVKLSCKASGYTFTSYWMNWVKQRPGQGLEWIGRIDPSDSETHYNQKFKDRATLTVDKSSSTAYIQLSSLTSEDSAVYYCAKVGRGYFDYWGQGTTLTVVS VL: NIVLTQSPSSLAVSVGQRATISCRASESVESYGNSFIYWYQQKPGKAPKLLIYLASNLASGVPARFSGSGSRTDFTLTIDPVQADDAATYYCQQNNEDPYTFGGGTKLEIK |  | binds | binds |  |
| humanized anti-α2-integrin mAb LC3/HC3 (antibody, IgG4, V domains shown) VH: QVQLHQPGAELVKPGASVKLSCKASGYTFTSYWMNWVKQRPGRGLEWIGRIDPSDSETHYNQKFKDKATLTVDKSSSTAYIQLSSLTSEDSAVYYCAKVGRGYFDYWGQGTTLTVVS VL: NIVLTQSPSSLSVSVGQRATISCRASESVESYGNSFIYWYQQKPGQAPKLLIYLASNLASGVPARFSGSGSRTDFTLTIDPVQAEDAATYYCQQNNEDPYTFGGGTKLEIK |  | binds | binds |  |
| humanized anti-α2-integrin mAb LC3/HC4 (antibody, IgG4, V domains shown) VH: QVQLHQPGAELVKPGASVKLSCKASGYTFTSYWMNWVKQRPGRGLEWIGRIDPSDSETHYNQKFKDKATLTVDKSSSTAYIQLSSLTSEDSAKYYCAKVGRGYFDYWGQGTTLTVVS VL: NIVLTQSPSSLSVSVGQRATISCRASESVESYGNSFIYWYQQKPGQAPKLLIYLASNLASGVPARFSGSGSRTDFTLTIDPVQAEDAATYYCQQNNEDPYTFGGGTKLEIK |  | binds | binds |  |
| TMC2206, humanized hIgG4 anti-alpha 2 integrin antibody (comparator) (antibody, V domains shown) VH: QVQLQESGPGLVKPSETLSLTCTVSGFSLTNYGIHWIRQPPGKGLEWLGVIWARGFTNYNSALMSRLTISKDNSKNQVSLKLSSVTAADTAVYYCARANDGVYYAMDYWGQGTLVTVSS VL: DFVMTQSPAFLSVTPGEKVTITCSAQSSVNYIHWYQQKPDQAPKKLIYDTSKLASGVPSRFSGSGSGTDYTFTISSLEAEDAATYYCQQWTTNPLTFGQGTKVEIKR |  | binds |  | binding [9]: binds; binding [10]: binds; binding [11]: binds |
| humanized anti-α2-integrin mAb LC5/HC7 (antibody, IgG4, V domains shown) VH: QVQLVQSGAEVKKPGASVKVSCKASGYTFTSYWMNWVRQAPGQGLEWIGRIDPSDSETHYAQKFQGRATLTVDKSTSTAYMELSSLRSEDTAVYYCAKVGRGYFDYWGQGTLVTVSS VL: NIVLTQSPASLAVSPGQRATITCRASESVESYGNSFIYWYQQKPGQPPKLLIYLASNLASGVPARFSGSGSRTDFTLTINPVEADDTANYYCQQNNEDPYTFGGGTKLEIK |  | binds | binds |  |
